According to PMC8898371:
Results are given in words; binding and its absence hold for the method and conditions named. Binding seen in cells or lysates may run through a third protein.

Sequences of proteins named here, by UniProt entry; tags and fusion partners are left off. A change or cut given only in a name is not applied to a line headed by its entry. Residues count along the entry.
UniProt Q8TE04: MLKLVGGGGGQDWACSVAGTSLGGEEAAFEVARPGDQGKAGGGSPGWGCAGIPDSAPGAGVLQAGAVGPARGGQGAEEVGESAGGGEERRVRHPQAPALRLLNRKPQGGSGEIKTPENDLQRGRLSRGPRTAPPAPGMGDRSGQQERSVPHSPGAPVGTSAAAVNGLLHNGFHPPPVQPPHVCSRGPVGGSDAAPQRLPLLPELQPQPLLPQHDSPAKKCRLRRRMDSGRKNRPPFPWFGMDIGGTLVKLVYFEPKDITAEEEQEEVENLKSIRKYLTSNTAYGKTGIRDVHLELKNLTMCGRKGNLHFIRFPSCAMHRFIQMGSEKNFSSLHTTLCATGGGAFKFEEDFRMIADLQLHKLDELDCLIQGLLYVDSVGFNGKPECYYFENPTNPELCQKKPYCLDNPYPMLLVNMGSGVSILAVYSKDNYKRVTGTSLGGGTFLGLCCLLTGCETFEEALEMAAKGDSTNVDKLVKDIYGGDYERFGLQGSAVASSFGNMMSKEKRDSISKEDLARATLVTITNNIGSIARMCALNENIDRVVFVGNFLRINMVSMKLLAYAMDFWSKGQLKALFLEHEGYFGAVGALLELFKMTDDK
UniProt O15169: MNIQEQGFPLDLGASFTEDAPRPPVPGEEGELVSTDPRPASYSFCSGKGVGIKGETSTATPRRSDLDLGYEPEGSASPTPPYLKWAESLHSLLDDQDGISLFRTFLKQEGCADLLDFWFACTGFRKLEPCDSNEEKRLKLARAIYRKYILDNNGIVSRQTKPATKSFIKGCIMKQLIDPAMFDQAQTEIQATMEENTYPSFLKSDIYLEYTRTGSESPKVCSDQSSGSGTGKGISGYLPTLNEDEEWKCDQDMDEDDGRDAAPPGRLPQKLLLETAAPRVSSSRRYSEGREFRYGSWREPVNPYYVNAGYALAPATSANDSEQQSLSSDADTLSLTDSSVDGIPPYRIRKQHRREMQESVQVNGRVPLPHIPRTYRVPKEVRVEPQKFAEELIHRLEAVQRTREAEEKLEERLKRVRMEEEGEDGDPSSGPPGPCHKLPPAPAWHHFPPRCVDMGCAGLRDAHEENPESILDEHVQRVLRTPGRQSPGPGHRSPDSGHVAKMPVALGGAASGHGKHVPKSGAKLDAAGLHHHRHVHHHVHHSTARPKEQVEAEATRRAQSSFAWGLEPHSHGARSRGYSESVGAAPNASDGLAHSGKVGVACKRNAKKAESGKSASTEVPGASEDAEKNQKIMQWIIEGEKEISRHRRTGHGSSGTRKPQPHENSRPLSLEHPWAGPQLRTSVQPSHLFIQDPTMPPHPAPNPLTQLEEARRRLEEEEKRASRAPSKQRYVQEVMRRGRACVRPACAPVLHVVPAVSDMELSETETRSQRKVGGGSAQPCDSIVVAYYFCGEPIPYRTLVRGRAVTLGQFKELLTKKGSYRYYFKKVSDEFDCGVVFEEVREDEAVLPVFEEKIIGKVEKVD
UniProt P49841: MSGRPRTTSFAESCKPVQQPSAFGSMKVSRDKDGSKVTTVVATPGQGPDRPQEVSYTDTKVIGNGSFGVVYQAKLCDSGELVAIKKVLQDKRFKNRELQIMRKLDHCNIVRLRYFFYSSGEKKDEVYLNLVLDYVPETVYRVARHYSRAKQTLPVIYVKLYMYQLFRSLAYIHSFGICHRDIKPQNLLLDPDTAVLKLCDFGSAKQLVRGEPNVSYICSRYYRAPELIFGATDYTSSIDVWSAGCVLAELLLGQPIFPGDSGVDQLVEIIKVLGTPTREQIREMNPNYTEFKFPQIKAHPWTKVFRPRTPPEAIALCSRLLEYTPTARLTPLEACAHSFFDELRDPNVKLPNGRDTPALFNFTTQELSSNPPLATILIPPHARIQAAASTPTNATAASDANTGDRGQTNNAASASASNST
UniProt Q68DV7, residues 24-783: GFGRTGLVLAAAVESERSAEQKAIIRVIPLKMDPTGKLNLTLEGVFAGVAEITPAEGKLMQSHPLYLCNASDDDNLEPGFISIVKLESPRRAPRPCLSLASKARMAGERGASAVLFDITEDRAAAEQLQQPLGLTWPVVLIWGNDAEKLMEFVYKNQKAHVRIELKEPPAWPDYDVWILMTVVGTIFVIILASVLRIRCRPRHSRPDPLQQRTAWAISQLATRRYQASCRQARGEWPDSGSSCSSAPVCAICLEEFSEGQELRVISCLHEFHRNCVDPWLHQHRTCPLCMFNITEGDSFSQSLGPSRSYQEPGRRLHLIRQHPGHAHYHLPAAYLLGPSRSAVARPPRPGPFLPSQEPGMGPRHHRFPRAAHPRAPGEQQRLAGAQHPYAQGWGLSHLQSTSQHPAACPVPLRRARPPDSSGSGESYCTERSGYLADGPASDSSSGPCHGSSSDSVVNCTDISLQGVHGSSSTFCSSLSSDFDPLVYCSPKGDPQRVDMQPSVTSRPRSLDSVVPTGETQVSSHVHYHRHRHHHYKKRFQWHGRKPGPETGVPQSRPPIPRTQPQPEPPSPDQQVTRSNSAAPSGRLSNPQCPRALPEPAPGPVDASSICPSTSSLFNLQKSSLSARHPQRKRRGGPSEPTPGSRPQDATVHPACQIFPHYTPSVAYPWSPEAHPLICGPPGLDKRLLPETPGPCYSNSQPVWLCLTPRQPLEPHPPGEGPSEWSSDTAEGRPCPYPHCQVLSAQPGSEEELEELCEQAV
UniProt P35222: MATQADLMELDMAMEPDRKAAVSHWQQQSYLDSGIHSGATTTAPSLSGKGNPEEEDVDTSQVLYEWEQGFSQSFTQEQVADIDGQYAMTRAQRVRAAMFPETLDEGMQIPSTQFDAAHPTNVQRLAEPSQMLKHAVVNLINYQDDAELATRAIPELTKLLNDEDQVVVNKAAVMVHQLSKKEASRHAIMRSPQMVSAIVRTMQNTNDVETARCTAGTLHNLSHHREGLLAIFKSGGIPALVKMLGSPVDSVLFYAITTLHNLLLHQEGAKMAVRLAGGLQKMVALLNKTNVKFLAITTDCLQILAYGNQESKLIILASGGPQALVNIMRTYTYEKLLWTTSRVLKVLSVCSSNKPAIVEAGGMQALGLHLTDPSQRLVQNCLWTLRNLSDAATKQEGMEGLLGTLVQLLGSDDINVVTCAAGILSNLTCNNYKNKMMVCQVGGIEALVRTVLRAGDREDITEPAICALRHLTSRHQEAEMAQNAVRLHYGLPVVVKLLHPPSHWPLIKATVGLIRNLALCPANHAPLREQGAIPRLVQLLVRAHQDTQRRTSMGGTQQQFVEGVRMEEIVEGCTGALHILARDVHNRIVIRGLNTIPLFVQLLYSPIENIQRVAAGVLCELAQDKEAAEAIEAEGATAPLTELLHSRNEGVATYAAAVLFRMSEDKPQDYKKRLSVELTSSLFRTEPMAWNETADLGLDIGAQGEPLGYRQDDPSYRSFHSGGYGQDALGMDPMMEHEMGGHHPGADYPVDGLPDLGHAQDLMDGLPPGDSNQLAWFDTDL

Target: PANK1 as tested against other components of the Wnt/β-catenin pathway (Figure S3A-F) (UniProt Q8TE04)
Assay: co-IP; PANK1 with other components of the Wnt/β-catenin pathway, Figure S3A-F; cells, tags and bait not told in the text shown

| Substance | binding |
| --- | --- |
| AXIN1 (from UniProt O15169 1-862) | no binding |
| GSK3β (from UniProt P49841 1-420) | no binding |
| RNF43 (from UniProt Q68DV7 24-783) | no binding |
| β-catenin (from UniProt P35222 1-781) | no binding |
